Measurements reported in PubChem BioAssay AID1259308 (NCATS, 2017)
Here is a random part of about 59,000 reagents. In the full data, about 1,510 (2.6%) got an active call. 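Calls use total luciferase alone and ignore viability, so some active siRNAs may act by altering cell number.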 Entries without a mark were called inactive. Reagents against one gene are numbered here. Not all columns of the deposit are shown.

Purpose: 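Candidate targets for better recombinant protein yield in mammalian cells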 (primary screen)
Cells: human HEK293 embryonic kidney cells stably expressing firefly luciferase (HEK-CMV-Luc2-Hygro)
Reagent: single siRNA against human genes, 0.8 pmol siRNA per well
Duration: 72 h
Measurement: 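Reporter luminescence and viable-cell signal on separate replicate plates, given as percent of non-targeting control and median/MAD z-scores, plus per-cell luciferase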
Direction: total luciferase, z-score: higher = more reporter protein produced
Active means: 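Active when the median/MAD z-score for overall luciferase is greater than 3; a gene was taken forward for validation with new siRNAs if at least two of its three siRNAs passed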
Meaning of the calls: active = raised luciferase; inactive = no rise

total luciferase, z-score, by gene knocked down and reagent
DERL1 (GeneID 79139): #1 0.666; #2 0.212; #3 -2.27
OR51G1 (GeneID 79324): #1 1.17; #2 -0.138; #3 0.942
EHMT1 (GeneID 79813): #1 -0.168; #2 -0.41; #3 2.91; #4 -0.947; #5 0.463; #6 -0.251
OTOG (GeneID 340990): #1 -0.563; #2 1.05; #3 0.232
ZNF195 (GeneID 7748): #1 -0.301; #2 0.832; #3 7.87 (active)
GPR27 (GeneID 2850): #1 3.32 (active); #2 0.105; #3 0.684
TBC1D17 (GeneID 79735): #1 -0.138; #2 -0.536; #3 0.989
PCDHB13 (GeneID 56123): #1 0.65; #2 0.0847; #3 1.96
LGI2 (GeneID 55203): #1 1.44; #2 -0.0398; #3 -0.113
TAF1D (GeneID 79101): #1 0.628; #2 -1.06; #3 0.0819
PRR14L (GeneID 253143): #1 -1.72; #2 0.545; #3 2.27
SAXO4 (GeneID 220004): #1 3.97 (active); #2 -0.693; #3 0.808
ZNF354C (GeneID 30832): #1 0.376; #2 1.23; #3 -0.0906
OTX2 (GeneID 5015): #1 -0.501; #2 0.0505; #3 -1.37
FAM133B (GeneID 257415): #1 -0.764; #2 0.431; #3 0.198
CHN1 (GeneID 1123): #1 -0.0994; #2 -0.574; #3 3.14 (active)
SETP20 (GeneID 389217): #1 0.392; #2 -1.39; #3 -1.34
RTN4IP1 (GeneID 84816): #1 -0.362; #2 -0.599; #3 0.197

A few values from above.
Value for EHMT1 (GeneID 79813) #2 under “total luciferase, z-score”: -0.41
CHN1 (GeneID 1123) #2, total luciferase, z-score → -0.574
RTN4IP1 (GeneID 84816) #2, total luciferase, z-score = -0.599
Under “total luciferase, z-score”, SAXO4 (GeneID 220004) #3 has 0.808
OTOG (GeneID 340990) #2, total luciferase, z-score → 1.05
Result of SETP20 (GeneID 389217) #1 in “total luciferase, z-score”: 0.392
